Results taken from article PMC12646668.
These are yes or no findings as the source states them, for the method shown. Binding seen in cells or lysates may run through a third protein.

The chains behind the UniProt entries cited, without tags or fusion partners. Where a name states a change or a piece, a line headed by the entry shows the natural chain unless it says otherwise.
UniProt P52630: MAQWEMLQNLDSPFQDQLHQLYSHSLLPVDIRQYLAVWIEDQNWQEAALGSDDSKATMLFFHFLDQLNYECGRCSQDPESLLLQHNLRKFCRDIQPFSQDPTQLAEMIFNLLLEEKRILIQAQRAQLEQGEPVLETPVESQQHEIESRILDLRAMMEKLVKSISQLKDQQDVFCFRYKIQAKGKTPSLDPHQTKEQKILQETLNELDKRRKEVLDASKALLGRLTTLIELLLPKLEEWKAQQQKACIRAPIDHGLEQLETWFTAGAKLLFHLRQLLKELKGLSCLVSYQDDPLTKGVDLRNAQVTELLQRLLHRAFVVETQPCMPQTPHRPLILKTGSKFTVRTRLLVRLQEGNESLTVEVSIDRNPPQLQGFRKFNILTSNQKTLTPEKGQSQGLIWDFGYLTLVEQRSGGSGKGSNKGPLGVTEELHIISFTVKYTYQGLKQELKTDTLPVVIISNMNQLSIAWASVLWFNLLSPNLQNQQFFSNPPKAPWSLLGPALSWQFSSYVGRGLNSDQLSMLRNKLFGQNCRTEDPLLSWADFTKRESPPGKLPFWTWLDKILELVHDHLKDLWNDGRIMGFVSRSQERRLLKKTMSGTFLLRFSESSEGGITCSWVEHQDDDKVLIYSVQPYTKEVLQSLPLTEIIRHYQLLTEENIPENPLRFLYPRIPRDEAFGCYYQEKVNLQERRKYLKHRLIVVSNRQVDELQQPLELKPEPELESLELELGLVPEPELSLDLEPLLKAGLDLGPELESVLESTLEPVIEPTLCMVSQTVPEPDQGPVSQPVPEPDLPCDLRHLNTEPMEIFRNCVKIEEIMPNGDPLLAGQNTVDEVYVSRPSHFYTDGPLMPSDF
UniProt P45974: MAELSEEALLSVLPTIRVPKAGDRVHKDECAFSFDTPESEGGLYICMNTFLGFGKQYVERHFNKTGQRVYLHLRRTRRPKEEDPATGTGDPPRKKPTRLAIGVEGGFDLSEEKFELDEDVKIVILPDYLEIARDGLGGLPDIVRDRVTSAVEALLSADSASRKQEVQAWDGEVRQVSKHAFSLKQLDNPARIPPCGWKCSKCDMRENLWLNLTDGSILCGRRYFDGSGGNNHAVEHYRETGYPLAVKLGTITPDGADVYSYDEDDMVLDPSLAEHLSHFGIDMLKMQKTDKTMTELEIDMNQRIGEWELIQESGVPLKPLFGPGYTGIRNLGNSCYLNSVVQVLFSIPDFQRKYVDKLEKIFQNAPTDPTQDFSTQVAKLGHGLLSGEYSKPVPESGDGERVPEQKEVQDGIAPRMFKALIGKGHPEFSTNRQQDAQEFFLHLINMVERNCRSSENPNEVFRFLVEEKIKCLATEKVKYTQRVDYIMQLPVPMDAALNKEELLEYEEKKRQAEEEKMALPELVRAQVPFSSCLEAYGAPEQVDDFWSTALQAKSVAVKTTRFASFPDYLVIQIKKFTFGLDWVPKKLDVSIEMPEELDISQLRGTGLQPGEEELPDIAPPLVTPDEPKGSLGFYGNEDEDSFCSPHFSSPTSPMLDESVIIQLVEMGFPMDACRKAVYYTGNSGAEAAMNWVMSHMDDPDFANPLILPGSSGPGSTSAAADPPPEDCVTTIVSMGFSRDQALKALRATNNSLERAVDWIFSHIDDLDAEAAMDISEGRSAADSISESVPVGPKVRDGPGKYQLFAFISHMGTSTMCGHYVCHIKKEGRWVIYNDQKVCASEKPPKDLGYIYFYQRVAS

Molecular target: FLAG-tagged Y690A-STAT2 (human) (UniProt P52630)
Experiment: co-IP; SUNE1 cells transfected with WT or mutant STAT2, IFN-β treated; IP lysis buffer, indicated antibodies overnight at 4°C, Protein A/G magnetic beads, Western blot

binding: no binding
Substance: USP5 (from UniProt P45974 1-858) (enzyme)
